According to PMC6838091:
These are yes or no findings as the source states them, for the method shown. In cells and extracts the contact can be indirect. Binding calls can cover weak binding; strength is not graded here.

By UniProt entry, the sequences of proteins in these tests, tags left out. Where a name states a change or a piece, a line headed by the entry shows the natural chain unless it says otherwise.
UniProt P23359: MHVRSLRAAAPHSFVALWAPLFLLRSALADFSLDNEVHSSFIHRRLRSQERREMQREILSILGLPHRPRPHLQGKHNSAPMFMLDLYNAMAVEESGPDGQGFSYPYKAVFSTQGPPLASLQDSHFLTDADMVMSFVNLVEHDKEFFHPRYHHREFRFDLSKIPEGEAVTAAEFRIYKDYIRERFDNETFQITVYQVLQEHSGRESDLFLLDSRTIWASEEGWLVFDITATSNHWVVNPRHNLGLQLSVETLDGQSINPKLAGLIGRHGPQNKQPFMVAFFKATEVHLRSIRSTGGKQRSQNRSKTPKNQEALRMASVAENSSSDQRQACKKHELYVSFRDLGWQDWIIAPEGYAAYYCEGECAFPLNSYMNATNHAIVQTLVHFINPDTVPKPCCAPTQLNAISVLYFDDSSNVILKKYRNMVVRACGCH

Molecular target: T1, SPARC-like protein 1 (SPARCL1) (mouse (endogenous in C2C12)) (UniProt P70663)
T1 sequence: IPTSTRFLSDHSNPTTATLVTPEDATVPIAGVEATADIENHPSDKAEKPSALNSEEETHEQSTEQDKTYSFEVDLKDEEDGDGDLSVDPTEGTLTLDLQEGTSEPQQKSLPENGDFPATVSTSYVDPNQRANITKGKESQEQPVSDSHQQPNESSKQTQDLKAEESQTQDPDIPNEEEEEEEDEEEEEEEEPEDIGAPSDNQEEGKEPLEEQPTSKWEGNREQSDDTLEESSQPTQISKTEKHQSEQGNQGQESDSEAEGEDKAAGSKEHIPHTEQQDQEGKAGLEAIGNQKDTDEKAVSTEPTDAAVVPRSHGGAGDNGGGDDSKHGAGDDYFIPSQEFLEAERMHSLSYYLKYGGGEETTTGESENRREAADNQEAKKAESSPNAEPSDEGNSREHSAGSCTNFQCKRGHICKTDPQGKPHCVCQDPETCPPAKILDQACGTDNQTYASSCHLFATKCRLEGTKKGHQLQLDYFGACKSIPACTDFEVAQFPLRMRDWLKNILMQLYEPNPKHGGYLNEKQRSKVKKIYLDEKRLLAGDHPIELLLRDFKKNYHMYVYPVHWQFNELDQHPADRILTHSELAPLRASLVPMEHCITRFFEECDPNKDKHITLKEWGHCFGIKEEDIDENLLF
Experiment: co-IP; endogenous proteins of C2C12 cells induced to differentiate for 72 h; precipitated in turn with SPARCL1 and BMP7 primary antibodies, IgG as negative control, Input as positive control; detected by immunoblot; buffer and conditions of the co-IP not told

bone morphogenetic protein 7 (BMP7) (from UniProt P23359)
binding: binds
